{
  "source": "patent US4178442A",
  "about": "“Novel cinnamoyles piperazines and homopiperazines, the method of preparing them and their application in therapeutics” (Delalande S. A., priority 1977, dated 1979)",
  "system": "anaesthetized dog",
  "assay": "Activity on the peripheral circulation, anaesthetized dog",
  "format": "in vivo",
  "settings": "5 mg/kg i.v. slow perfusion",
  "procedure": "The activity on the peripheral circulation was studied on an anaesthetized dog (sodium pentobarbital 30 mg/kg/i.v.). The femoral artery flow was measured by means of an electromagnetic or ultrasonic perivascular Doppler effect probe.",
  "data": [
    {"smiles": "C(=C\\c1ccccc1)/CN1CCN(C(c2ccccc2)c2ccccc2)CC1", "note": "[Cinnarizine, cinnarizine, reference compound]", "values": [
      {"measurement": "Average arterial pressure: in time", "result": 15, "unit": "min"}
    ]}
  ]
}
